In PubChem BioAssay AID2685 (National Center for Advancing Translational Sciences (NCATS), 2010):
The list shows a part of the results. These are further read-outs of the screen, such as a control signal, another cell line or another target. No call is given for them. The list favours compounds with an active or inconclusive main result. Words in brackets tell the shape of the fitted curve; partial curves, single points and poor fits give uncertain potencies.

Test: qHTS Assay for Lipid Storage Modulators in Drosophila S3 Cells;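 on cell number change: cells counted by Cell Tracker Red CMTPX staining in the red channel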
Details: BODIPY lipid droplet fluorescence, 18-24 h; for cell number change: measured here: cell count max response, cells fed with added oleic acid
Summary of the method: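 Drosophila S3 cells got compounds at several concentrations plus oleic acid (400 uM solution). Laser-scanning cytometry with 488 nm excitation read lipid droplets at 500-530 nm and cells at 575-640 nm. Percent activity was relative to 20 uM Triacsin C.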

[1] = measured here: cell number channel AC50, cells fed with added oleic acid
[2] = measured here: lipid fluorescence (Fed channel) AC50, cells fed with added oleic acid

| Structure (SMILES) | cell number change | AC50 [1] | AC50 [2] |
| --- | --- | --- | --- |
| COc1ccc(OC(C)C(=O)N2CCOCC2)cc1 (centres undefined) | 5.06% |  |  |
| O=C(N/N=C/c1ccco1)c1cccc(NC(=O)c2cccc(Cl)c2)c1 | 15.1% | 6.51 µM [rising, single point] |  |
| CCC(C)(C)NC(=O)Cn1c(=O)oc2cc(S(=O)(=O)N3CC(C)CC(C)C3)ccc21 (centres undefined) | -10% |  | 9.2 µM [falling, partial curve] |
| O=C(CC(=O)Nc1ccc(Cl)cc1)N/N=C\c1cccc(F)c1 | 16.7% |  |  |
| Cc1nn(Cc2ccccc2Cl)c(Cl)c1C(=O)NCCc1ccccc1 | 34.6% | 3.26 µM [rising, full curve] |  |
| CS(=O)(=O)N(CCc1ccccc1)CC(=O)NCc1ccco1 | -27.2% |  | 18.4 µM [falling, single point] |
| COc1ccc(C(C(=O)NC2CCCC2)N(CC2CCCO2)C(=O)Cc2cccs2)cc1OC (centres undefined) | -2.05% |  | 0.82 µM [falling, full curve, poor fit] |
| Cc1ccc(C)c(S(=O)(=O)N2CCN(CC(=O)NC(=O)NCc3ccco3)CC2)c1 | -10.5% |  |  |
| CCOc1ccc(C(=O)NNC(=O)c2cc(S(=O)(=O)N3CCOCC3)ccc2Cl)cc1 |  |  | 32.6 µM [falling, single point] |
| CSc1ccccc1NC(=O)c1ccccc1C | -8.92% |  | 0.103 µM [rising, full curve, poor fit] |
| N#Cc1c(NC(=O)c2cc([N+](=O)[O-])ccc2N2CCOCC2)sc2c1CCCC2 |  |  | 1.3 µM [rising, partial curve] |
| CCOC(=O)C1CSC(CC(=O)Nc2ccc(OC(F)(F)F)cc2)C(=O)N1 (centres undefined) | -38% | 4.11 µM [falling, full curve, poor fit] |  |
| COc1ccc2[nH]cc(CCN3C(=O)CCC3=O)c2c1 | -14.9% |  | 5.8 µM [falling, single point] |
| O=C(NC12CC3CC(CC(C3)C1)C2)c1ccc(-c2ccccc2Cl)o1 | -6.14% |  | 1.64 µM [falling, full curve, poor fit] |
| O=C(Nc1nccs1)c1cc(N2CCOCC2)nc2ccccc12 | -2.16% | 6.51 µM [falling, single point] | 5.17 µM [falling, single point] |
| O=C(CN1C(=O)c2ccccc2S1(=O)=O)NCCSCc1ccccc1Cl | 24.3% | 0.366 µM [rising, full curve, poor fit] | 1.64 µM [rising, partial curve, poor fit] |
| COCCN(CCOC)C(=O)C12CCC(C)(C(=O)C1)C2(C)C (centres undefined) | 3.26% |  |  |
| O=C(O)CNS(=O)(=O)c1ccc(C2CCCCC2)cc1 | -39.8% | 0.0231 µM [falling, full curve] | 0.651 µM [falling, partial curve, poor fit] |
| O=C(O)c1nn(CCOc2c(Cl)cccc2Cl)c(=O)c2ccccc12 | 9.52% |  | 20.6 µM [rising, single point] |
| COC(=O)[C@H](C)NC(=O)Nc1ccccc1C(F)(F)F | 0.281% |  |  |

Whole records, looked up by structure.
COc1ccc(OC(C)C(=O)N2CCOCC2)cc1 (centres undefined) as listed: cell number change: 5.06%
O=C(O)CNS(=O)(=O)c1ccc(C2CCCCC2)cc1 as listed: cell number change: -39.8%; AC50 [1]: 0.0231 µM [falling, full curve]; AC50 [2]: 0.651 µM [falling, partial curve, poor fit]
COc1ccc2[nH]cc(CCN3C(=O)CCC3=O)c2c1 as listed: cell number change: -14.9%; AC50 [2]: 5.8 µM [falling, single point]

Remaining list, next part:

| Structure (SMILES) | cell number change | AC50 [1] | AC50 [2] |
| --- | --- | --- | --- |
| N#CCC(=O)N1CCCCCC1 | -6.32% |  |  |
| CC(C)(C)c1ccc(C[C@H](C(=O)O)N2C(=O)c3ccc(C(=O)O)cc3C2=O)cc1 | -26.6% |  | 29.1 µM [falling, single point] |
| CC(CCc1ccccc1)NC(=O)c1nnc(Cc2ccc(Cl)cc2)o1 (centres undefined) | 42.6% | 7.31 µM [rising, partial curve] | 13 µM [rising, partial curve] |
| CCOC(=O)N1CCN(C(=O)c2cc3cc(Br)ccc3oc2=O)CC1 | -10.7% |  | 0.092 µM [rising, full curve, poor fit] |
| CC(=O)NC12CC3CC(C1)CC(C(=O)N1CCN(S(=O)(=O)c4cccc(F)c4)CC1)(C3)C2 | 30.7% |  | 22.4 µM [rising, single point] |
| N#CCCn1cc(C(=O)Nc2ccc([N+](=O)[O-])cc2)c(-c2cc3ccccc3o2)n1 | -23.7% |  | 29.1 µM [falling, partial curve, poor fit] |
| COc1ccc(/C=N/N2CCN(Cc3ccccc3)CC2)cc1 | 17.2% |  | 29.1 µM [rising, single point] |
| CN1CCN(c2ccc([N+](=O)[O-])cc2NC(=O)c2cccs2)CC1 | 21.1% |  | 0.259 µM [falling, partial curve, poor fit] |
| CCC(C)c1ccc(OCC(=O)Nc2cccc(C(=O)Nc3ccc(C(=O)O)cc3)c2)cc1 (centres undefined) |  |  | 29.1 µM [rising, single point] |
| Cc1ccc(CN2C(=O)CCC2C(=O)NCCCN2CCC(C)CC2)cc1 (centres undefined) | -16% | 0.231 µM [falling, full curve] | 25.9 µM [falling, partial curve] |
| Cc1cc(C)n2nc(C(=O)OCC(=O)NC(=O)c3ccccc3)nc2n1 | -24% |  |  |
| COc1cccc(OCc2cc(C(=O)N(C)C3CC(C)(C)NC(C)(C)C3)no2)c1 | 30.2% | 29.1 µM [rising, single point] |  |
| C#CCOc1c(/C=C\c2nc(O)c([N+](=O)[O-])c(=O)[nH]2)cc(Br)cc1OC | 17.6% |  | 29.1 µM [rising, single point] |
| CC(C)=CCc1c(O)ccc(C(=O)Cc2ccccc2)c1O | -44.3% | 13 µM [falling, partial curve] | 23.1 µM [falling, partial curve] |
| COC(=O)CCNC(=O)Cc1c(C)n(C(=O)c2ccc(Cl)cc2)c2ccc(OC)cc12 | 28.4% |  | 11.6 µM [rising, single point] |
| Cc1ccc(-n2c(SCC(=O)N3CCC(C(=O)O)CC3)nc3ccccc3c2=O)cc1C | 5.88% |  | 6.51 µM [rising, partial curve, poor fit] |
| Cc1cc(-c2n[nH]c(=S)n2/N=C/c2ccco2)n[nH]1 | 16% |  | 3.26 µM [rising, single point] |
| COc1cccc(C(=O)C2CCCN(C/C=C/c3ccccc3OC)C2)c1 (centres undefined) | 9.48% |  |  |
| COCCn1c(-c2ccccc2)cnc1N | -13.8% | 6.51 µM [rising, single point] | 5.17 µM [rising, single point] |
